Patent US20250344731A1, “SALTY TASTE/UMAMI ENHANCER” (AJINOMOTO CO., INC., priority 2023, published 2025)

Columns and labels:
[1] = Sensory evaluation of saltiness enhancement function, naringenin/naringin added to NaCl aqueous solution (Example 1)
Protocol: As shown in Table 1: NaCl aqueous solution (weight g/100 g), various NaCl aqueous solutions (saline solutions) were prepared. Filtered water at ordinary temperature was used for preparation. Water, naringenin (Penta Manufacturing), or naringin (IKEDA CORPORATION) were weighed and added to the prepared 0.8% aqueous solution at various concentrations shown in Table 2: Prepared sensory evaluation samples. The saltiness intensity of each sample was blindly evaluated using a scoring system in 0.1 point increments, with the saltiness intensity of NC in test plot 1 as 1.00 point and the saltiness intensity of PC in test plot 2 as 5.5 points. The evaluation was performed by a trained panel of three, and the average score of each panel was used. Samples with a saltiness intensity of 1.8 points or more (NaCl 0.84% or more) due to the addition were evaluated to “have a saltiness enhancement function”. In addition, the presence or absence, and intensity of off-taste (bitterness and harsh taste other than saltiness) were also evaluated. The evaluation results are shown in Table 3: Sensory evaluation (saltiness intensity).

[2] = Sensory evaluation of umami enhancement function, naringenin/naringin added to sodium glutamate umami solution or water (Example 2)
Protocol: As shown in Table 4: Umami solution (weight g/100 g), an umami solution was prepared. Water at ordinary temperature was used for preparation. Water, naringenin (Penta manufacturing) or naringin (IKEDA CORPORATION) were weighed and added to each of the prepared umami solutions or water at various concentrations shown in Table 5: Prepared sensory evaluation samples. The umami intensity of each sample was blindly evaluated using a scoring system in 0.01 point increments, with the umami intensity of water in test plot 1 as 0 point, the umami intensity of NC in test plot 3 as 0.30 points, and the umami intensity of NC2 in test plot 4 as 0.10 point. The evaluation was performed by a trained panel of three, and the average score of each panel was used. Samples whose umami intensity was enhanced by 1.5 times or more (sodium glutamate 0.45 points or more, sodium aspartate 0.15 points or more) due to the addition were evaluated to “have an umami enhancement function”. In addition, the presence or absence, and intensity of off-taste (bitterness and harsh taste other than umami) were also evaluated. The evaluation results are shown in Table 6: Sensory evaluation (umami intensity).

[3] = Taste of naringenin itself (description); settings: at about 1000 weight ppm
[4] = Sensory evaluation of saltiness enhancement function, naringenin-related flavonoid components in NaCl aqueous solution (Example 3); settings: 30 ppm in NC salt water (NaCl 0.8%)
Excerpt: 1) The following flavonoid components were used as naringenin-related flavonoid components: • Luteolin (manufactured by Salus Nutra Inc.), pinocembrin (manufactured by Xi'an Demeter Biotech Co., Ltd.), liquiritigenin (manufactured by Xi'an Julong Import and Export Co., Ltd.), apigenin (manufactured by Xi'an Best Bio-Tech Co., Ltd.), and acacetin (manufactured by Xi'an Reain Biotechnology Co., Ltd.)
2) The following compound was used as control component: Quercetin (manufactured by Medience Corporation) (structure shown below)
As shown in Table 7: NaCl aqueous solution (weight g/100 g), various NaCl aqueous solutions (saline solutions) were prepared. Water at ordinary temperature was used for preparation.
Each naringenin-related flavonoid component dissolved in propylene glycol (SIGMA) at 10000 ppm was added to the prepared 0.8% salt water solution such that the concentration at the time of eating (corresponding to the content of the present flavonoid component or a salt thereof in the oral ingestion product at the time of oral ingestion, as a flavonoid component relative to the oral ingestion product) was 30 ppm (Table 8).
The saltiness intensity of each sample was blindly evaluated using a scoring system in 0.5 point increments, with the saltiness intensity of NC in test plot 1 as 1.0 point, the saltiness intensity of PC1 as 2.0 points, and the saltiness intensity of PC2 as 3.0 points. The evaluation was performed by a trained panel of three, and the average score was used. Since the saltiness intensity of 2.0 points of PC1 is evaluated to be clearly stronger in saltiness than NC, samples with a saltiness intensity of 1.5 points or more (NaCl 0.85% or more) were evaluated to have a saltiness enhancement function. In addition, the presence or absence, and intensity of off-taste (bitterness and harsh taste other than saltiness) were also evaluated. The evaluation results are shown in Table 9: Sensory evaluation (saltiness intensity).

[5] = Sensory evaluation of umami enhancement function, naringenin-related flavonoid components in umami solution (Example 4); settings: 30 ppm in NC (sodium glutamate 0.1%)
Protocol: • 1) The five naringenin-related flavonoid components evaluated in Example 3 were used. • 2) Quercetin was used as the control component. Umami solutions were prepared as shown in Table 10: Umami solution (weight g/100 g). Water at ordinary temperature was used for preparation. Each naringenin-related flavonoid component and the like dissolved in propylene glycol (SIGMA) at 10000 ppm was added to the prepared 0.1% umami aqueous solution such that the concentration at the time of eating was 30 ppm (Table 11). The umami intensity of each sample was blindly evaluated using a scoring system in 0.05 point increments, with the umami intensity of water in test plot 1 as 0 point and the umami intensity of NC in test plot 2 as 0.30 points. The evaluation was performed by a trained panel of three, and the average score was used. The umami enhancement function of samples whose umami intensity was enhanced by 1.5 times or more (sodium glutamate 0.45 points or more) due to the addition was evaluated to be functional. In addition, the presence or absence, and intensity of off-taste (bitterness and harsh taste other than umami) were also evaluated. The evaluation results are shown in Table 12: Sensory evaluation (umami intensity).

[6] = addition of 1 ppm or more to salt water
[7] = addition to umami solution (sodium glutamate, sodium aspartate), 30 ppm

Question: Which results are given for `O=C1C[C@@H](c2ccc(O)cc2)Oc2cc(O)cc(O)c21` (stereo in doubt) [Naringenin, 5,7-dihydroxy-2-(4-hydroxyphenyl)chroman-4-one]?
Answer: off-taste ([1]; 1 ppm added to NC salt water (NaCl 0.8%)): none; off-taste ([1]; 5 ppm added to NC salt water (NaCl 0.8%)): none; off-taste ([1]; 10 ppm added to NC salt water (NaCl 0.8%)): none; off-taste ([1]; 30 ppm added to NC salt water (NaCl 0.8%)): none; off-taste ([1]; 30 ppm added to water (NaCl 0%)): none; off-taste [1, 6]: without imparting an off-taste; off-taste ([2]; 30 ppm added to NC1 (MSG, sodium glutamate 0.1%)): none; off-taste ([2]; 30 ppm added to water): none; off-taste [2, 7]: without imparting an off-taste; bitterness [3]: no bitterness; taste [3]: slightly sweet

Question: Which off-taste [4] does the source give for `COc1ccc(-c2cc(=O)c3c(O)cc(O)cc3o2)cc1` [Acacetin, 5,7-dihydroxy-4-methoxyflavone] here?
Answer: Its off-taste is “none”.

Question: What about the off-taste [5] of the same compound?
Answer: Its off-taste is “none”.

Question: For `O=c1cc(-c2ccc(O)cc2)oc2cc(O)cc(O)c12` [Apigenin, 5,7-dihydroxy-2-(4-hydroxyphenyl)-4H-1-benzopyran-4-one], which off-taste [4] is on record?
Answer: Its off-taste is “none”.

Question: And the off-taste [5]?
Answer: Its off-taste is “none”.

Question: With `O=C1C[C@@H](c2ccc(O)cc2)Oc2cc(O)ccc21` [Liquiritigenin, (2S)-4′,7-dihydroxyflavan-4-one] as the compound, how does the off-taste [4] read?
Answer: The off-taste was “none”.

Question: What about the off-taste [5] of the same compound?
Answer: The off-taste was “none”.

Question: What does the source list for `O=c1cc(-c2ccc(O)c(O)c2)oc2cc(O)cc(O)c12` [Luteolin, 2-(3,4-dihydroxyphenyl)-5,7-dihydroxy-4-chromenone]?
Answer: off-taste [4]: none; off-taste [5]: none

Question: What does the source list for `C[C@@H]1O[C@@H](O[C@H]2[C@H](Oc3cc(O)c4c(c3)O[C@H](c3ccc(O)cc3)CC4=O)O[C@H](CO)[C@@H](O)[C@@H]2O)[C@H](O)[C@H](O)[C@H]1O` [Naringin, naringin, reference compound]?
Answer: off-taste [1, 6]: an unpleasant bitterness was simultaneously imparted; off-taste [2, 7]: imparted a bitter taste

Question: For `O=C1CC(c2ccccc2)Oc2cc(O)cc(O)c21` (stereo not shown) [Pinocembrin, 5,7-dihydroxy-2-phenyl-2,3-dihydro-4H-chromene-4-one], which off-taste [4] is on record?
Answer: The off-taste was “none”.

Question: What about the off-taste [5] of the same compound?
Answer: Its off-taste is “none”.

Question: For `O=c1c(O)c(-c2ccc(O)c(O)c2)oc2cc(O)cc(O)c12` [Quercetin, reference compound], which off-taste [4] is on record?
Answer: The off-taste was “bitter”.

Question: And the off-taste [5]?
Answer: Its off-taste is “bitter”.
